Results as given in article PMC7355663, “Microscale Thermophoresis as a Screening Tool to Predict Melanin Binding of Drugs” (Pharmaceutics, 2020).
Where two headings read alike, the source gives them in different places.

Columns and labels:
[1] = set-up: method as in PMID 26741026, PMID 29859954; conditions: from previous studies; ref [11],[16]; read-out: Kd ± SE, traditional method (Sips isotherm); cited from earlier work
[2] = Label-free microscale thermophoresis (MST) melanin binding assay
Protocol: Synthetic melanin was purchased from Sigma Aldrich (#M8631-100 mg). Melanin nanoparticles were prepared as described earlier by Fan et al., and low-binding pipette tips (Maxymum RecoveryTM pipet tips, Corning Incorporated, Salt Lake City, UT, USA) and tubes (No stick microtubes, Alpha Laboratories, Hampshire, UK) were used with both melanin and melanin nanoparticles. Briefly, melanin was dissolved into 1 N NaOH with a concentration of 2 mg/mL and stirred by vortexing. The solution was neutralized by adding an equal volume of 1 N HCl. […] After the final centrifugation, the resulting nanoparticles were suspended into a small volume of sterile water and freeze-dried for 48–72 h (ModulyoD-230, Thermo Savant, Holbrook, NY, USA), and stored at −20 °C until the binding assays.
Melanin binding of each of the 13 model compounds was determined (for the concentrations in the assay, see Table 1). […]
After >2 h incubation, the melanin–ligand complexes were mixed gently with a pipette to ensure melanin solution homogeneity and then transferred into capillaries (Monolith NT.115 Premium capillaries, #MOK025, NanoTemper Technologies GmbH, München, Germany). The samples were analyzed with a Monolith NT.115 pico device using MO.Control Software (both from NanoTemper Technologies GmbH, München, Germany) using nano-blue excitation, LED light adjusted to 60% excitation power, and infrared laser (MST power) set to high. […] Unbound is either the normalized fluorescence signal (Fnorm; MST mode) or raw fluorescence counts (initial fluorescence mode) of the target alone. Bound is either the normalized fluorescence signal or raw fluorescence counts (initial fluorescence mode) of the melanin–ligand complex. […]
The normalized fluorescence is the ratio of relative fluorescence of the selected region after heating (hot region) and relative initial fluorescence before the heating (cold region, i.e., relative fluorescence values before the infrared laser was switched on). […]
Kd determination strategies. The Kd values were tested in both initial fluorescence and the above […]

CC(C)NCC(O)COc1cccc2ccccc12 (stereo not shown) [Propranolol]
Kd [1]: 163 ± 100 µM | Kd ([2]; 0.5 mg/mL (12.5 µM) melanin nanoparticles, PBS pH 7.4, room temperature, 68% confidence, initial fluorescence mode for compounds marked *, otherwise MST mode, read-out: Kd ± Kd Confidence (MST)): 80 ± 92 µM | Kd ([2]; Table S2, normalized fluorescence, 60% excitation power, read-out: Kd, MST mode (Fnorm)): 230 µM | Kd ([2]; Table S2, raw fluorescence counts before heating, 60% excitation power, read-out: Kd, initial fluorescence mode): 80 µM
